Results on four molecules are retold here after paper PMC7960550.

The chains behind the UniProt entries cited, without tags or fusion partners.
UniProt P51784: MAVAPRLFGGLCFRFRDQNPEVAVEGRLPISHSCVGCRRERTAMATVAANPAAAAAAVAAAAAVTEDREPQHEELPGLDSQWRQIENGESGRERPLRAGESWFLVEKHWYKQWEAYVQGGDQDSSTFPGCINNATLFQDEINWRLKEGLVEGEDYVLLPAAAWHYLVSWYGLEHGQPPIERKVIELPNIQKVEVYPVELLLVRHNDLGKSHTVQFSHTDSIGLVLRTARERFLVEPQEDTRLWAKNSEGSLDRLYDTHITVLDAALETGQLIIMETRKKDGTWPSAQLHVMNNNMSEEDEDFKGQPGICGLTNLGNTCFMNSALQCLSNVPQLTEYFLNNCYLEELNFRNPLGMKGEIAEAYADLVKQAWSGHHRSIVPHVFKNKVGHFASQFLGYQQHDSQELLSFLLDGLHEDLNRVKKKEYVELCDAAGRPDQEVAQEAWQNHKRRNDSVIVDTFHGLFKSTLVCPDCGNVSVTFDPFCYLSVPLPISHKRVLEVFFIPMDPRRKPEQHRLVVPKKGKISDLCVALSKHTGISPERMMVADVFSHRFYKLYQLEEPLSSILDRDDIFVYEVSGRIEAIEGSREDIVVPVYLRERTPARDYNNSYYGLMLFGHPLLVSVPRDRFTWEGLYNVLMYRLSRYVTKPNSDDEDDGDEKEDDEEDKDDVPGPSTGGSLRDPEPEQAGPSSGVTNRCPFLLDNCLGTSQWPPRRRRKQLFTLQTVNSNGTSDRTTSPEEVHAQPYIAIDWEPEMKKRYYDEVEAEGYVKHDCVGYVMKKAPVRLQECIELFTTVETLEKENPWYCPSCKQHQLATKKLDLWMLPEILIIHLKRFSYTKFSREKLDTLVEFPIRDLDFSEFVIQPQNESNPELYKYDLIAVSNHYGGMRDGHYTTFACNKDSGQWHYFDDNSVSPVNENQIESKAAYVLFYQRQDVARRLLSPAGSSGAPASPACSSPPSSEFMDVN
UniProt Q93009: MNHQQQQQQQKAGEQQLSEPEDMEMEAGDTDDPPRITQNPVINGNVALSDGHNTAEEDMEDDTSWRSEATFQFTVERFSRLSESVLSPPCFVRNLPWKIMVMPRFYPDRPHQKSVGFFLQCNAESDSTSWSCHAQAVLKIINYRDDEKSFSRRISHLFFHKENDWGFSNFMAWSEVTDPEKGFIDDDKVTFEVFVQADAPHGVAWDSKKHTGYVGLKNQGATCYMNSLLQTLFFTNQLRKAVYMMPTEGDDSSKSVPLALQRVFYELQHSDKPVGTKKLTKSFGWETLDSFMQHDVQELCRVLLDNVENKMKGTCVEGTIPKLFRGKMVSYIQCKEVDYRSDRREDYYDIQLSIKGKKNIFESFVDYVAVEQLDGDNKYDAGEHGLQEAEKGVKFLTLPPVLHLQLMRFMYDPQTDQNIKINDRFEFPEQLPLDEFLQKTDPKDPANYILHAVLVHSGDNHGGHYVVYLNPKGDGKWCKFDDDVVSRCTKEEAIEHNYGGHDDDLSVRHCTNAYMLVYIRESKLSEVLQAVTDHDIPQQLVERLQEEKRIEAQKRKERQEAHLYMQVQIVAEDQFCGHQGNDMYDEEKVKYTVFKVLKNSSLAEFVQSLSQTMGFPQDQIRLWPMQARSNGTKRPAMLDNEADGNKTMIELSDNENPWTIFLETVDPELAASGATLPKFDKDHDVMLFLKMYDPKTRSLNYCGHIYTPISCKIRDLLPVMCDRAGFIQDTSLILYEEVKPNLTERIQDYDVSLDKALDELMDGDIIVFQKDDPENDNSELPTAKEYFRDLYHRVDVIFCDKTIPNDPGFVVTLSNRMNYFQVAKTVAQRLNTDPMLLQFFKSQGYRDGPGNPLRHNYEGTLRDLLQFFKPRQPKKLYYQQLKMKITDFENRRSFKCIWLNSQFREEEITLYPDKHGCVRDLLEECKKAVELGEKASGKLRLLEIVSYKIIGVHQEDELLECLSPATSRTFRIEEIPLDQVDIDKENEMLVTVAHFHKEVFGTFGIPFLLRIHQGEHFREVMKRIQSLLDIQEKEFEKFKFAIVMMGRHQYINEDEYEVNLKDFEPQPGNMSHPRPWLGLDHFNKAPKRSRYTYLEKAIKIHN

These are yes or no findings as the source states them, for the method shown. In cells and extracts the contact can be indirect. Here binding means that the protein was enriched with, or labelled near, the bait; the list need not be complete.

The target of one assay is SFB-USP11 (UniProt P51784). The assay is described as follows: affinity purification with mass spectrometry; TAP-MS: SFB-tagged bait stably expressed in HEK 293T; lysate in NETN buffer (250 mM NaCl, 5 mM EDTA pH 8.0, 50 mM Tris-HCl pH 8.0, 0.5% Nonidet P-40); streptavidin-Sepharose beads, biotin elution, then S-protein-agarose beads; SFB-USP11 cells treated with 10 μM CPT for 2 h.

Assay [1] has as its target T1, SFB-SPRTN full-length (FL) (UniProt Q9H040).
T1 sequence: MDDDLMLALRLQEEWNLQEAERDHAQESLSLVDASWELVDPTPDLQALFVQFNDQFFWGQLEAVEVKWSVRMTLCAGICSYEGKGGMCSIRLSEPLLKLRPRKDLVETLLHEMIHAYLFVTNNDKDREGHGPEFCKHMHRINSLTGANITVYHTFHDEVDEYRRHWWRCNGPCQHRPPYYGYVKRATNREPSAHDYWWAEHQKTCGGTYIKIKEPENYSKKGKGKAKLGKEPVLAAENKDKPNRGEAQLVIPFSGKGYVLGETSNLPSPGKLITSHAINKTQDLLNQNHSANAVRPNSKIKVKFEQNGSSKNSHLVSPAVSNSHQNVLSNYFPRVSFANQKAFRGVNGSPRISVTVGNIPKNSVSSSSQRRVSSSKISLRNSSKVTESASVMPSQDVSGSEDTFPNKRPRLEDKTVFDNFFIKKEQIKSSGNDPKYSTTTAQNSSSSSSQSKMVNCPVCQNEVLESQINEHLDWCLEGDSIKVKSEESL
The description is as above.

In the case of “Endogenous USP7 (from UniProt Q93009 1-1102)”, in the assay with SFB-USP11, the binding result was “binds”.

For VCP (from UniProt P55072 1-806), the binding result in assay [1] was “binds”.

With “Endogenous USP11 (from UniProt P51784 1-963)”, the binding result in assay [1] is reported as “binds”.

B1: POLD3 (protein, UniProt Q15054 1-466)
chain: MADQLYLENIDEFVTDQNKIVTYKWLSYTLGVHVNQAKQMLYDYVERKRKENSGAQLHVTYLVSGSLIQNGHSCHKVAVVREDKLEAVKSKLAVTASIHVYSIQKAMLKDSGPLFNTDYDILKSNLQNCSKFSAIQCAAAVPRAPAESSSSSKKFEQSHLHMSSETQANNELTTNGHGPPASKQVSQQPKGIMGMFASKAAAKTQETNKETKTEAKEVTNASAAGNKAPGKGNMMSNFFGKAAMNKFKVNLDSEQAVKEEKIVEQPTVSVTEPKLATPAGLKKSSKKAEPVKVLQKEKKRGKRVALSDDETKETENMRKKRRRIKLPESDSSEDEVFPDSPGAYEAESPSPPPPPSPPLEPVPKTEPEPPSVKSSSGENKRKRKRVLKSKTYLDGEGCIVTEKVYESESCTDSEEELNMKTSSVHRPPAMTVKKEPREERKGPKKGTAALGKANRQVSITGFFQRK
Turning to B1, in assay [1], the binding result is “binds”.
